In assay [1] the target is ctSyo1 (Chaetomium thermophilum (endogenous in C. thermophilum)) (UniProt G0S5S6). Put plainly: cryo-EM structure; hexameric ct 5S RNP isolated from C. thermophilum via ctRpf2; 3.5 Å; contains 5S rRNA; both purified.
Assay [2] concerns the target ProtA-TEV-ctSyo1 (Chaetomium thermophilum) (UniProt G0S5S6). Put plainly: cryo-EM structure; ct–sc 5S RNP chimera split-tag purified from yeast; monomer of the hexamer 4.1 Å, dimer of hexamers 4.0 Å (C2); contains yeast 5S rRNA; both purified.

Chains of the proteins cited; added tags and fusions are not shown. Lines headed by an entry give the natural chain unless they say otherwise; changes in a name come on top.
UniProt G0S5S6: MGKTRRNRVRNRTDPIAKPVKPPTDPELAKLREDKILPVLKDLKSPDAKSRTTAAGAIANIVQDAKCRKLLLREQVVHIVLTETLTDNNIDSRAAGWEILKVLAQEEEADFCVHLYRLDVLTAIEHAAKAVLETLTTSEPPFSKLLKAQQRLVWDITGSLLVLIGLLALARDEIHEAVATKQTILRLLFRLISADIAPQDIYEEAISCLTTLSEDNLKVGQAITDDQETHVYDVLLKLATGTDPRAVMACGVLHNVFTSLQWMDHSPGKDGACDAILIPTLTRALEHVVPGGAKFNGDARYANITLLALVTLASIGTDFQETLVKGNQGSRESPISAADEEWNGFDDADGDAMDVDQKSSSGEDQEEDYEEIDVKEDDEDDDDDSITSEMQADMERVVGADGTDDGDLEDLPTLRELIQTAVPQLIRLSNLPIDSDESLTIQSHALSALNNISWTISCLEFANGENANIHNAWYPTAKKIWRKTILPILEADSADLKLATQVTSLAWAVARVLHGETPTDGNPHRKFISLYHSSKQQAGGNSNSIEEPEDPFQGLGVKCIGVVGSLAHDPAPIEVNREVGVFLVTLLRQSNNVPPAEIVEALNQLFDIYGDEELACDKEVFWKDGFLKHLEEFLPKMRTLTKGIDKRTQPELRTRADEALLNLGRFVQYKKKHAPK
UniProt G0SHQ2: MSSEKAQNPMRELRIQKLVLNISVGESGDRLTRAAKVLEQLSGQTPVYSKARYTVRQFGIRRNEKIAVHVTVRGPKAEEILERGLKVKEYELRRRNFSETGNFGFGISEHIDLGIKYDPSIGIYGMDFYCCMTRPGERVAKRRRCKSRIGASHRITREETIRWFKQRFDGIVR
UniProt G0SEG2: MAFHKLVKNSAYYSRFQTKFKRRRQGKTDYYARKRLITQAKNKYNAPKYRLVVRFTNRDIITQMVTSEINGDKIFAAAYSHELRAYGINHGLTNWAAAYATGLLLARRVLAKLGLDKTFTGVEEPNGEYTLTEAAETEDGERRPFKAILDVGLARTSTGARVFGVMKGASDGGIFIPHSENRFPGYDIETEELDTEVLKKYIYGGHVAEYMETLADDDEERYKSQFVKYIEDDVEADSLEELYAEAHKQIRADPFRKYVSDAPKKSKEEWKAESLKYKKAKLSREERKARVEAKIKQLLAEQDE

These are yes or no findings as the source states them, for the method shown. Binding calls can cover weak binding; strength is not graded here.

Take ctuL5 (from UniProt G0SHQ2): the binding result in assay [1] was “binds”.
On the same count and under the same terms, the value for ctuL18 (from UniProt G0SEG2) was “binds”.

B1: endogenous yeast uL18 (protein, UniProt P26321 1-297)
chain: MAFQKDAKSSAYSSRFQTPFRRRREGKTDYYQRKRLVTQHKAKYNTPKYRLVVRFTNKDIICQIISSTITGDVVLAAAYSHELPRYGITHGLTNWAAAYATGLLIARRTLQKLGLDETYKGVEEVEGEYELTEAVEDGPRPFKVFLDIGLQRTTTGARVFGALKGASDGGLYVPHSENRFPGWDFETEEIDPELLRSYIFGGHVSQYMEELADDDEERFSELFKGYLADDIDADSLEDIYTSAHEAIRADPAFKPTEKKFTKEQYAAESKKYRQTKLSKEERAARVAAKIAALAGQQ
Consider B1, for which, in assay [2], the binding result is on record as “binds”.
